Molecules are shown by their SMILES. This is one part of the list. These are further read-outs of the screen, such as a control signal, another cell line or another target. No call is given for them. The list favours compounds with an active or inconclusive main result. Words in brackets tell the shape of the fitted curve; partial curves, single points and poor fits give uncertain potencies.

The experiment is described as follows: qHTS Assay for Identifying the Cell-Membrane Permeable IMPase Inhibitors. Conditions: CHO-M1 cells, IP1 accumulation, HTRF TR-FRET ratio; measured here: donor channel 620 nm AC50. Background: qHTS replaces the single test concentration by a dilution series.
One may read the AC50 as the concentration giving half of the maximal activity seen. Consider `COC(=O)c1c(NC(=O)c2ccc(S(=O)(=O)N3CCOCC3)cc2)sc2c1CCN(C)C2`, for which the AC50 was 251 nM [falling, single point].

As to `CCC(CC)C(=O)Nc1cccc(C(=O)N2CCCC2)c1`, the AC50 is 12600 nM [rising, single point].

For `O=[N+]([O-])c1cc(-c2ccc(/C=N/c3nc4ccccn4c3-c3ccco3)o2)ccc1Cl`, the AC50 was 2510 nM [falling, full curve, poor fit].

As to `CC(=O)OC1c2c(ccc3ccc(=O)oc23)OC(C)(C)C1OC(=O)CC(C)C` (configuration not stated), the AC50 is 200 nM [rising, full curve, poor fit].

For `CCc1ccccc1NC1=NCC(=O)N1Cc1ccc2c(c1)OCO2`, the AC50 is 2510 nM [falling, partial curve].

As for `Cc1ccc(NC(=O)c2ccc3c(c2)N(CC(=O)N2CCCCC2)C(=O)C(C)(C)O3)cc1`, the AC50 was 31600 nM [falling, single point].

For the compound `COC(=O)c1ccc(CSCC(=O)Nc2cc(OC)cc(OC)c2)o1`, the AC50 is 10 nM [rising, partial curve, poor fit].

As to `COC(=O)C1=C(C)NC(=O)CC1c1ccc(F)c(Br)c1` (configuration not stated), the AC50 was 1000 nM [falling, full curve].

Turning to `Cn1c(=O)c2c(-c3ccccc3)n(-n3cnnc3)cc2n(C)c1=O`, the AC50 was 5010 nM [falling, single point].

Take `O=C(NCCc1ccccc1)c1noc2c1CCCCC2`: the AC50 was 3.16 nM [rising, full curve, poor fit].

For the compound `CCN(CC)CCCN1C(=O)C(O)=C(C(=O)c2cc3ccccc3o2)C1c1ccccn1` (configuration not stated), the AC50 was 15800 nM [rising, single point].

Consider `Cc1cc(Cl)ccc1Oc1nc(-c2ccccc2)ncc1S(C)(=O)=O`, for which the AC50 was 15800 nM [rising, single point].

As to `O=S(=O)(c1cccs1)n1cnc2ccccc21`, the AC50 was 10 nM [rising, full curve, poor fit].

`COc1cc(-c2c(C#N)c(N)nc(SCc3ccncc3)c2C#N)cc(OC)c1OC`: the AC50 is 3980 nM [falling, full curve].

Take `Cc1cccc(N2C(=O)SC(N(C)c3ccccc3)C2=O)c1` (configuration not stated): the AC50 is 100 nM [falling, full curve].

As for `O=C(CC1C(=O)NCCN1C(=O)c1ccc(F)cc1)OCc1ccccc1` (configuration not stated), the AC50 was 5010 nM [falling, single point].

For the compound `Fc1cccc(Nc2cc(-n3cccn3)ncn2)c1`, the AC50 is 1000 nM [falling, full curve].

For the compound `CCP(=O)(CC)C(C)(C)CP(=O)(c1ccccc1)c1ccccc1`, the AC50 was 501 nM [rising, full curve, poor fit].

Consider `Cc1c(Br)c(C(F)(F)F)nn1CC(=O)N1CCCC1`, for which the AC50 is 5010 nM [rising, single point].

Consider `CN(CCNC(=O)c1ccc(N2CCCC2=O)cc1)CCc1ccccc1`, for which the AC50 was 31600 nM [falling, single point].

In the case of `Cc1ccc(C(=O)C2=C(O)C(=O)N(Cc3ccccc3)C2c2cccnc2)o1` (configuration not stated), the AC50 was 12600 nM [rising, partial curve].

On to `Cc1ccc2nc(SCC(=O)NCc3ccco3)c(C#N)cc2c1`, for which the AC50 is 31600 nM [rising, single point].

Turning to `CS(=O)(=O)N(CC(O)CON=C1c2ccccc2-c2ccccc21)c1ccc(F)cc1` (configuration not stated), the half-maximal activity concentration (AC50) is 158 nM [falling, full curve, poor fit].

Regarding `CCn1c(CSc2nc(C)cc(C)n2)nnc1SCC(=O)N1CCCc2ccccc21`, the AC50 is 50.1 nM [falling, full curve, poor fit].

For the compound `Cc1nnsc1C(=O)Nc1ccc(Cl)cc1Cl`, the AC50 is 200 nM [falling, full curve].

Regarding `Cc1ccc(C)c(N(C)C(=O)Cc2c(C(=O)O)[nH]c3ccc(Cl)cc23)c1`, the AC50 was 3.16 nM [falling, full curve, poor fit].

Take `CN1C(=O)CC(N2CCN(CC(N)=O)CC2)C1=O` (configuration not stated): the AC50 is 794 nM [rising, full curve].

For `N#CC(c1cccc(Cl)c1)c1ccc2c(C(F)(F)F)cc(C(F)(F)F)nc2n1` (configuration not stated), the AC50 was 20000 nM [falling, partial curve, poor fit].

As to `CCCC12CN3CC(CCC)(CN(C1)C3C(O)C(O)C(O)CO)C2=O` (configuration not stated), the AC50 was 3160 nM [rising, single point].

Consider `Cc1ccc(S(=O)(=O)N(C)CC(=O)Nc2nc3ccccc3s2)cc1`, for which the concentration at half-maximal activity (AC50) is 35500 nM [falling, single point].

For the compound `O=C1CC(N2CCN(c3ccccc3F)CC2)C(=O)N1c1ccc2c(c1)OCCO2` (configuration not stated), the AC50 is 794 nM [falling, full curve, poor fit].

`Cc1cnc(C(=O)Nc2nnc(C(C)C)s2)cn1`: the AC50 is 31600 nM [falling, single point].

For `COc1ccc(S(=O)(=O)N(CCCN2CCOCC2)Cc2ccc(OC)c(OC)c2)cc1`, the AC50 was 126 nM [falling, full curve].

On to `CC(=O)c1sc(NC(=O)C(C)C)nc1C`, for which the AC50 was 12600 nM [rising, partial curve].

With `Nc1c(C(=O)NCc2ccc(Cl)cc2)sc2nc(-c3ccc(F)cc3)ccc12`, the AC50 was 10 nM [rising, full curve].

Consider `Cc1ccc(-c2cc(C(=O)Nc3ccccc3C)c3ccccc3n2)o1`, for which the AC50 was 200 nM [rising, single point].

With `CC1CC(=O)c2cnc(N)nc2C1` (configuration not stated), the AC50 was 3160 nM [falling, single point].

Regarding `CCCN(CCC)C(=O)CSc1nc2ccsc2c(=O)n1NC(=O)c1ccccc1`, the AC50 was 12.6 nM [rising, full curve, poor fit].

For the compound `CN1CCN(CC(=O)Nc2ccc(Oc3ccccc3)cc2)CC1`, the AC50 is 6310 nM [falling, full curve].

Turning to `COc1cccc(NC(=O)N[C@@H](Cc2ccccc2)C(=O)O)c1`, the AC50 was 1000 nM [falling, single point].

Consider `Cn1c2c(c(=O)n(C)c1=O)C(NC(=O)c1cccs1)(C(F)(F)F)C(=O)N2` (configuration not stated), for which the AC50 is 79.4 nM [falling, full curve, poor fit].

As for `COc1cc(SC)ccc1C(=O)NCCOc1ccc(Cl)cc1`, the AC50 was 10000 nM [rising, partial curve].

Take `O=c1c2c(-c3cccs3)csc2[nH]c(=S)n1-c1ccccc1`: the AC50 is 12600 nM [rising, partial curve].

For the compound `C=CCn1c(CNc2ccccc2)nnc1SCC(=O)N/N=C/c1ccc(O)cc1O`, the AC50 was 25100 nM [falling, partial curve, poor fit].

As to `COc1ccc(C(C#N)N2CCOCC2)cc1` (configuration not stated), the AC50 was 6310 nM [falling, single point].

Take `CCc1ccc2c(c1)C(C)=CC(C)(C)N2`: the AC50 is 3160 nM [rising, partial curve, poor fit].

With `O=C(O)CCc1ccc(-c2ccc(Cl)cc2)n1CC(=O)O`, the AC50 is 10 nM [rising, full curve, poor fit].

As to `O=c1[nH]c(=S)c2c(n1-c1ccccc1)CCC2`, the AC50 was 12600 nM [rising, partial curve].

As for `CNC(=O)CN(c1ccc(OC)cc1)S(=O)(=O)c1ccc(F)cc1`, the AC50 is 200 nM [falling, full curve, poor fit].

On to `CCCCn1c(=O)cc(O)c2ccccc21`, for which the AC50 is 794 nM [falling, full curve].

For the compound `CCN(CC)CCOc1cc2c(nn1)Oc1ccccc1N2C`, the AC50 is 25.1 nM [rising, full curve, poor fit].

On to `COc1ccc(-c2nnc(N(C)C(=O)c3cccnc3)s2)cc1`, for which the AC50 was 12600 nM [falling, single point].

On to `Cn1c(=O)cc(SCC(=O)NCCCN2CCOCC2)c2ccc(Cl)cc21`, for which the AC50 is 25100 nM [rising, single point].

For `COC(=O)CNc1n[nH]c(=S)[nH]c1=O`, the concentration at half-maximal activity (AC50) is 10000 nM [rising, partial curve].

Turning to `COc1ccc(Br)cc1C(=O)Nc1ccc2oc(-c3cccnc3)nc2c1`, the AC50 is 355 nM [falling, partial curve, poor fit].

`c1ccc2c(c1)Cn1nc(Cc3nc4c(s3)CCCC4)nc1-2`: the AC50 was 63.1 nM [rising, full curve, poor fit].

On to `O=C(NCc1nnc(SCC(=O)N2CCCC2)o1)c1ccccc1F`, for which the AC50 was 2000 nM [falling, full curve, poor fit].

Consider `O=C(c1ccccc1)c1nn(-c2ccccc2)c2nnc(Cc3ccccc3)c(=O)n12`, for which the AC50 is 1580 nM [falling, partial curve].

Turning to `C=C(C)Cn1c(SCC(=O)Nc2ccccc2C)nc2sc3c(c2c1=O)CCCC3`, the AC50 was 10000 nM [rising, single point].

`COc1cccc(-n2c(C)nnc2SCC#N)c1`: the AC50 is 3160 nM [falling, partial curve, poor fit].

In the case of `COc1cccc(OC)c1C(=O)N1CCN(S(=O)(=O)c2ccc(C)cc2)CC1`, the AC50 is 5620 nM [falling, single point].

Regarding `O=C(Nc1nnc(SCc2ccccc2)s1)c1ccco1`, the AC50 is 10 nM [rising, full curve, poor fit].

Consider `CC12CC(c3ccccc3O1)C(C(=O)N1CCOCC1)C(=O)N2` (configuration not stated), for which the AC50 is 6310 nM [rising, single point].

On to `CC(=O)Nc1ccc(NC(=O)c2ccccc2N(C)S(C)(=O)=O)cc1`, for which the AC50 is 31.6 nM [falling, full curve, poor fit].

On to `N#Cc1cc2[nH]c(=O)c(=O)[nH]c2cc1[N+](=O)[O-]`, for which the concentration at half-maximal activity (AC50) is 12600 nM [falling, partial curve, poor fit].

For `COc1ccccc1N(CC(=O)Nc1ccc2c(c1)OCCO2)S(C)(=O)=O`, the AC50 was 398 nM [falling, partial curve].

Turning to `CCC(=O)Nc1c2c(nn1-c1ccc(C)cc1C)CSC2`, the AC50 was 5010 nM [rising, full curve].

The record behind these values is PubChem BioAssay AID901 (National Center for Advancing Translational Sciences (NCATS), 2007).
